Laboratory results published in doi:10.1101/2023.01.13.523954.

What follows are substances tested against T1, rpmC (P. aeruginosa (endogenous in strain PAO1)) (UniProt Q9HWE3) (assay: cross-linking).
T1 sequence: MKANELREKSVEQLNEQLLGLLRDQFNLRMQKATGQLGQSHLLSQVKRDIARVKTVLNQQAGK

Row | Substance | binding
1 | PHIKZ108 (Pseudomonas phage ϕKZ) | binds
2 | PHIKZ285 (Pseudomonas phage ϕKZ) | binds
3 | PHIKZ175 (Pseudomonas phage ϕKZ) | binds

No constants are given. Whether binding was seen depends on the method and setting. Binding seen in cells or lysates may run through a third protein. Binding calls can cover weak binding; strength is not graded here.
